Experimental data taken from paper PMC4705653.
These are yes or no findings as the source states them, for the method shown. For some assays here: Binding seen in cells or lysates may run through a third protein. Some results given as binding are weak or reduced against the parent protein; the word gives no strength.

The chains behind the UniProt entries cited, without tags or fusion partners.
UniProt P06243: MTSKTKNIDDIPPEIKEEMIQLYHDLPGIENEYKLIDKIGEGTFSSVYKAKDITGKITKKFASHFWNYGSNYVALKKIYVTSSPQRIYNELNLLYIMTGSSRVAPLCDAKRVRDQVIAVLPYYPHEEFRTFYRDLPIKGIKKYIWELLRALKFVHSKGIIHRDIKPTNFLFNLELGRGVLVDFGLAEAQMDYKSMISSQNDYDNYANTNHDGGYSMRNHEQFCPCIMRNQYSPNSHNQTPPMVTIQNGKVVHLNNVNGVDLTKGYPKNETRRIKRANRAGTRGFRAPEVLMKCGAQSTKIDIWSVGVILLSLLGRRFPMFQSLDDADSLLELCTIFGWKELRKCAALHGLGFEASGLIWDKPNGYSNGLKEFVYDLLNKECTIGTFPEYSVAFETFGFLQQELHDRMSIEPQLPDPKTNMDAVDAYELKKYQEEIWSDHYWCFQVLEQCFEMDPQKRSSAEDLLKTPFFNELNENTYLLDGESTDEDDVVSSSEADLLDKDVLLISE
UniProt P29469: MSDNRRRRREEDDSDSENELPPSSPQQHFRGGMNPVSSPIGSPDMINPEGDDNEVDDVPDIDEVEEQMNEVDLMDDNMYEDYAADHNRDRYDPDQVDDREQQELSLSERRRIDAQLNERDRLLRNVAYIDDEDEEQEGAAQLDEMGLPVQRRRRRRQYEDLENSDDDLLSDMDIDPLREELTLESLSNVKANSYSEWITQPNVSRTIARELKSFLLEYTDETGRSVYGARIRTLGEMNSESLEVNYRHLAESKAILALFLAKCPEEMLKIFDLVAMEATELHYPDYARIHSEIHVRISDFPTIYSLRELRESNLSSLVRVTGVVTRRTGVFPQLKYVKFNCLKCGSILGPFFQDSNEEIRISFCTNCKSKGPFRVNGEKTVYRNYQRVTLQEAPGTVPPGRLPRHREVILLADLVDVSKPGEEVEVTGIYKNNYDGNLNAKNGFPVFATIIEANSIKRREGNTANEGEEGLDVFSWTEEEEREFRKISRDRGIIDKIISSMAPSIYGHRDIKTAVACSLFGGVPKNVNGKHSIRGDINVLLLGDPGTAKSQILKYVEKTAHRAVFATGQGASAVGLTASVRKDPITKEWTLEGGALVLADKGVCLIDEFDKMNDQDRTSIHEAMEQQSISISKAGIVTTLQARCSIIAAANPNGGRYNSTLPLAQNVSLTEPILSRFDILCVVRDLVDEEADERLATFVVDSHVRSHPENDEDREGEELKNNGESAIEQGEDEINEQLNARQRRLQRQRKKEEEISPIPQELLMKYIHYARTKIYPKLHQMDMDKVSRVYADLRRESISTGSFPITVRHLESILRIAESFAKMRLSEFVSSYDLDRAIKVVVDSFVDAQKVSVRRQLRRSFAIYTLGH
UniProt P32354: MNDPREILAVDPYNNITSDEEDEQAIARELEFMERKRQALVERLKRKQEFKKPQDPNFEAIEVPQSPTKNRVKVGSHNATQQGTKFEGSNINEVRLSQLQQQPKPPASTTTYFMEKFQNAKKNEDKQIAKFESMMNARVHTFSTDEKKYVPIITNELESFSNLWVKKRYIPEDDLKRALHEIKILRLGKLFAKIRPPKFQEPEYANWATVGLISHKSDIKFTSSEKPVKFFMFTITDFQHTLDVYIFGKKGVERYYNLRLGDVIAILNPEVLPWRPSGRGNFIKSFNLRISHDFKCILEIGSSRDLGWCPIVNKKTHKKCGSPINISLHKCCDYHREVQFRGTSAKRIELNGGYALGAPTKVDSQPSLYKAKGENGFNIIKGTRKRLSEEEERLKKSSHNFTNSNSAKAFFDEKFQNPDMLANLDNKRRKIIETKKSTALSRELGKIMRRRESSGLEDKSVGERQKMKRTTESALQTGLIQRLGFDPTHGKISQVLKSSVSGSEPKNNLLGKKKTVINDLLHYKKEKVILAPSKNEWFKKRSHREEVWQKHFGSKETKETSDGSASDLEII
UniProt P22336: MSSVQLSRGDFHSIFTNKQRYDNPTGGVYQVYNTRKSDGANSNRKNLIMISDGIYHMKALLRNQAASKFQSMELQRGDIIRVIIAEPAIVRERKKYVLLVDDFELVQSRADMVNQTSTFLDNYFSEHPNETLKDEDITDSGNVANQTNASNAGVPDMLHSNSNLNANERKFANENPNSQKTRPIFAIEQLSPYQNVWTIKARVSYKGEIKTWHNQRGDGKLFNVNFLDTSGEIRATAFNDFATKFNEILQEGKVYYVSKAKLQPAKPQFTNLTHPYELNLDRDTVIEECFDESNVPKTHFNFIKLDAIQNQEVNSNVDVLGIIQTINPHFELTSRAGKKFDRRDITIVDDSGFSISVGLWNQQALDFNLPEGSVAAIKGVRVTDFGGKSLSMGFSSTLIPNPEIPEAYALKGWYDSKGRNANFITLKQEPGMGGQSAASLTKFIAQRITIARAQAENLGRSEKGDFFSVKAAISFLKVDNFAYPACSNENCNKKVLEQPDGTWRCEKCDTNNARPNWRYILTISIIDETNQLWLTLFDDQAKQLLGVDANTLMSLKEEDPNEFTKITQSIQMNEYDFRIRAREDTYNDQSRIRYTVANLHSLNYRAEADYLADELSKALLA

Columns and labels:
GST-Cdc7 (budding yeast) = GST-Cdc7 (budding yeast) (UniProt P06243); experiment: pull-down; 30 pmol GST-tagged protein on Glutathione Sepharose, varying concentrations of 32P-labelled PKA-tagged protein in solution; GST binding buffer (40 mM Tris–HCl pH 7.5, 100 mM NaCl, 0.1 mM EDTA, 10% glycerol, 0.1% Triton X-100, 1 mM DTT, 0.1 mg/ml BSA), 100 μl, 30°C, 10 min; SDS-PAGE and phosphorimaging; in some panels with 5 mM ATP or ATPγS, or with a third labelled protein (Mcm10, Sld3) added; both purified
[1] = biological target: Mcm2 (endogenous, precipitated with anti-Mcm2; read by the paper as the loaded Mcm2–7 complex) (budding yeast (endogenous in mcm10-1-aid cells)) (UniProt P29469); experiment: co-IP; mcm10-1-aid cells released from G1 (α-factor) into S phase at 25°C, with or without auxin (Mcm10 depletion); extracts treated with Benzonase, no cross-linker, no hydroxyurea; precipitated with anti-Mcm2, western blot of the partner

binding (GST-Cdc7 (budding yeast)) | binding [1] | Substance
binds weakly | – | PKA-Mcm10 (radiolabeled) (from UniProt P32354 1-571)
– | binds | Rfa1–5FLAG (from UniProt P22336 1-621)
